Laboratory results: the supplement of paper PMC5355238
Structures can show the parent of a compound that is named as a salt. The list shows a part of the results. Single values are uncertain, as repeats are few or missing.

What follows are compounds tested on Reh (assay: S-phase gammaH2AX median, Z-score vs plate median (drug alone); higher = more S-phase DNA damage). Settings: MK1775 concentration 0 nM; 10 µM; 4 h.

| Structure (SMILES) | S-phase gammaH2AX median (Z-score) |
| --- | --- |
| O=C(Nc1ccc(OC(F)(F)F)cc1)c1sccc1NCc1ccnc2ccccc12 | 0.08 |
| CNC(=O)c1cc2c(cn1)[nH]c1ccccc12 [N-Methyl-beta-carboline-3-carboxamide] | 0.756 |
| CCC(=O)N1CCN(C(=O)c2ccccc2)CC1 | 0.0661 |
| c1ccc(C2CN3CCSC3=N2)cc1 (configuration not stated) [Tetramisole hydrochloride] | 0.24 |
| CC(COc1ccc(/C=C/c2ccccc2)cc1)[N+](C)(C)C (configuration not stated) | -0.447 |
| Cn1c(=O)c2nc[nH]c2n(C)c1=O [Theophylline] | 0.327 |
| CN(C)CCC(c1ccc(Cl)cc1)c1ccccn1 (single isomer, unassigned; (+)) [(+)-Chlorpheniramine maleate] | 0.0816 |
| O=C(N[C@@H](Cc1ccccc1)C(=O)CCl)OCc1ccccc1 [Z-L-Phe chloromethyl ketone] | 0.893 |
| CC(C)(C)c1[nH]cnc1/C=c1\[nH]c(=O)/c(=C/c2ccccc2)[nH]c1=O [NPI-2358 (Plinabulin)] | 0.053 |
| Cc1scc2c1N(C(=O)CN1CCN(C)CC1)c1ccccc1NC2=O [Telenzepine dihydrochloride] | 0.788 |
| O=C(O)C1CCCN(CCC=C(c2ccccc2)c2ccccc2)C1 (configuration not stated) | 0.0601 |
| CC(=O)O[C@]1(C(C)=O)CC[C@H]2[C@@H]3C=C(Cl)C4=CC(=O)[C@@H]5C[C@@H]5[C@]4(C)[C@H]3CC[C@@]21C [Cyproterone acetate] | -0.0641 |
| N[C@@H]1CONC1=O [D-Cycloserine] | -0.0233 |
| OCC1OC(n2cnc3c(NC4CCCCC4)ncnc32)C(O)C1O (configuration not stated) [N6-Cyclohexyladenosine] | 0.0583 |
| N[C@@H](Cc1c[nH]c2ccc(O)cc12)C(=O)O [5-Hydroxy-L-tryptophan] | 0.161 |
| CC(C)n1nc(-c2ccc3oc(N)nc3c2)c2c(N)ncnc21 | -0.104 |
| Clc1ccc(Cn2c(CN3CCCC3)nc3ccccc32)cc1 [Clemizole hydrochloride] | 0.144 |
| O=C(O)/C=C/c1ccc(O)c(O)c1 [Caffeic Acid] | 0.0233 |
| CCCCc1nc2cc(/C=C/C(=O)NO)ccc2n1CCN(CC)CC [SB939 (Pracinostat)] | 0.33 |
| CC(=O)Oc1ccccc1C(=O)O [Acetylsalicylic acid] | -0.033 |
| CC1=C(/C=C/C(C)=C/C=C/C(C)=C/C=C/C=C(C)/C=C/C=C(C)/C=C/C2=C(C)C(=O)[C@@H](O)CC2(C)C)C(C)(C)C[C@H](O)C1=O [Astaxanthin] | -0.0447 |
| CC(O)C(O)[C@H]1CNc2nc(N)[nH]c(=O)c2N1 (stereo partly drawn) [(6R)-5,6,7,8-Tetrahydro-L-biopterin hydrochloride] | -0.113 |

In another format: two of the compounds above.
Structure (SMILES),S-phase gammaH2AX median (Z-score)
Clc1ccc(Cn2c(CN3CCCC3)nc3ccccc32)cc1 [Clemizole hydrochloride],0.144
O=C(O)/C=C/c1ccc(O)c(O)c1 [Caffeic Acid],0.0233
